Where a name gives a salt, the structure may show the parent alone. ± gives the standard deviation of the averaged measurements. The list shows a part of the results. Many values rest on one well or one pass, so single values are uncertain.
Tested on: RAW 264.7
Assay: HMGB1-induced TNF-alpha production relative to HMGB1-stimulated control; higher = more TNF-alpha secretion (less inhibition)
Details: stimulus: HMGB1 5 ug/ml, 18 h
[1] = compound concentration: 1 ug/ml

| SMILES | HMGB1-induced TNF-alpha production (compound concentration: 3 uM) [%] | HMGB1-induced TNF-alpha production [1] [%] |
| --- | --- | --- |
| CCCN(CCC)S(=O)(=O)c1ccc(C(=O)O)cc1 [Probenecid] | 66.2 |  |
| CCCN(CCC)S(=O)(=O)c1ccc(C(=O)O)cc1 | 92.5 |  |
| O=c1[nH]c(=S)[nH]c(-c2ccccc2)c1Cc1c(O)ccc2ccccc12 [Cambinol] | 73.5 |  |
| CCSc1ncnc2nc[nH]c12 [6-ethylmercaptopurine] |  | 74.5 |
| COc1ccc2[nH]c([S+]([O-])Cc3ncc(C)c(OC)c3C)nc2n1 (configuration not stated) [Tenatoprazole] | 99.9 ± 5.4 |  |
| CN(C)CCOC(c1ccccc1)c1ccccc1 [Diphenhydramine] | 102 |  |
| CN(C)CCOC(c1ccccc1)c1ccccc1 | 93.1 ± 26 |  |
| CN(C)CCOC(c1ccccc1)c1ccccc1 [Diphenhydramine hydrochloride] | 74.7 ± 17 |  |
| CC(=O)[C@H]1CC[C@H]2[C@@H]3CCC4=CC(=O)CC[C@]4(C)[C@H]3CC[C@]12C | 94.58 ± 0.94 |  |
| CC(=O)[C@H]1CC[C@H]2[C@@H]3CCC4=CC(=O)CC[C@]4(C)[C@H]3CC[C@]12C [Progesterone] | 82 ± 16 | 63.9 |
| OC(CN1CCC(Cc2ccc(F)cc2)CC1)c1ccc(Cl)cc1 (configuration not stated) [Eliprodil] | 87.7 |  |
| NC(Cc1cc(I)c(Oc2cc(I)c(O)c(I)c2)c(I)c1)C(=O)O (configuration not stated) [Thyroxine (L)] | 92.7 |  |
| CN(C)CC/C=C1/c2ccccc2Sc2ccc(Cl)cc21 [Chlorprothixene hydrochloride] | 61.4 ± 21 |  |
| CN(C)CC/C=C1/c2ccccc2Sc2ccc(Cl)cc21 | 95.9 |  |
| CC(=O)Oc1ccccc1C(=O)O | 84.5 |  |
| CC(=O)Oc1ccccc1C(=O)O [Acetylsalicylic Acid] | 103 |  |
| CC(=O)Oc1ccccc1C(=O)O [Acetylsalicylic acid] | 90.5 ± 9 |  |
| O=C(O)[C@H]1NCCC[C@H]1C(=O)O (racemic) [(±)-cis-Piperidine-2,3-dicarboxylic acid] | 99.8 |  |
| CC1=C(/C=C/C(C)=C/C=C/C(C)=C/C=C/C=C(C)/C=C/C=C(C)/C=C/C2=C(C)C(=O)[C@@H](O)CC2(C)C)C(C)(C)C[C@H](O)C1=O [Astaxanthin] | 93.3 |  |
| O=c1[nH]c(=O)n([C@@H]2O[C@H](CO)[C@@H](O)[C@H]2O)cc1Br [5-Bromouridine] |  | 85.7 |
| N=C(N)NS(=O)(=O)c1ccc(N)cc1 [Sulfaguanidine] | 77.2 |  |
| N=C(N)NS(=O)(=O)c1ccc(N)cc1 | 91.7 ± 3.8 |  |
| NC[C@@H]1CC[C@@H](N)[C@@H](O[C@H]2[C@H](O)[C@@H](O[C@H]3O[C@H](CO)[C@@H](O)[C@H](N)[C@H]3O)[C@H](N)C[C@@H]2N)O1 | 83.5 |  |
| CC1=C(/C=C/C(C)=C/C=C/C(C)=C/C(=O)O)C(C)(C)CCC1 [Retinoic Acid] | 69.9 |  |
| CC1=C(/C=C/C(C)=C/C=C/C(C)=C/C(=O)O)C(C)(C)CCC1 | 88.2 ± 13 |  |

Two entries drawn at random from the list so far, as already listed:

| SMILES | HMGB1-induced TNF-alpha production (compound concentration: 3 uM) [%] | HMGB1-induced TNF-alpha production [1] [%] |
| --- | --- | --- |
| CN(C)CC/C=C1/c2ccccc2Sc2ccc(Cl)cc21 [Chlorprothixene hydrochloride] | 61.4 ± 21 |  |
| CC(=O)Oc1ccccc1C(=O)O [Acetylsalicylic acid] | 90.5 ± 9 |  |

Going on with the list:

| SMILES | HMGB1-induced TNF-alpha production (compound concentration: 3 uM) [%] | HMGB1-induced TNF-alpha production [1] [%] |
| --- | --- | --- |
| CC1=C(/C=C/C(C)=C/C=C/C(C)=C/C(=O)O)C(C)(C)CCC1 [Retinoic acid] | 73.2 ± 33 |  |
| NC(=O)c1cc[n+](CC2=C(C(=O)[O-])N3C(=O)[C@@H](NC(=O)[C@@H](c4ccccc4)S(=O)(=O)O)[C@H]3SC2)cc1 [Cefsulodin sodium salt] | 123 |  |
| CC(O)C(O)[C@H]1CNc2nc(N)[nH]c(=O)c2N1 (stereo partly drawn) [(6R)-5,6,7,8-Tetrahydro-L-biopterin hydrochloride] | 108 |  |
| CC(C)=CC[C@@H](O)C1=CC(=O)c2c(O)ccc(O)c2C1=O [Shikonin] | 11.1 |  |
| NC(=O)C1=CN(C2OC(COP(=O)(O)OP(=O)(O)OC[C@H]3O[C@@H](n4cnc5c(N)ncnc54)C(OP(=O)(O)O)[C@H]3O)C(O)C2O)C=CC1 (some centres not stated) [NADPH tetrasodium] | 110 |  |
| CCc1c(C)[nH]c2c1C(=O)C(CN1CCOCC1)CC2 (configuration not stated) [Molindone hydrochloride] | 106 ± 3.8 |  |
| NC(=O)CNCCC(c1ccccc1)c1ccccc1 [N-(3,3-Diphenylpropyl)glycinamide] | 90.1 |  |
| CC(=O)OCC1OC(Oc2cc(OC(C)=O)c3c(=O)cc(-c4ccc(OC(C)=O)c(OC(C)=O)c4)oc3c2)C(OC(C)=O)C(OC(C)=O)C1OC(C)=O (configuration not stated) |  | 70.4 |
| COc1cc(C(=O)NCCCCCC(=O)O)cc(OC)c1OC | 83.9 |  |
| CC1=C(C(=O)O)N2C(=O)[C@@H](NC(=O)[C@H](N)C3=CCC=CC3)[C@H]2SC1 [Cephradine] | 77.4 |  |
| CC1=C(C(=O)O)N2C(=O)[C@@H](NC(=O)[C@H](N)C3=CCC=CC3)[C@H]2SC1 | 90.8 |  |
| N[C@@H](CCC(=O)N[C@@H](CS)C(=O)NCC(=O)O)C(=O)O | 87.1 |  |
| CCC1(c2ccccc2)NC(=O)N(C)C1=O (configuration not stated) [Mephenytoin] | 99.8 ± 24 |  |
| CC1(C)[C@H](C(=O)O)N2C(=O)C[C@H]2S1(=O)=O [Sulbactam] | 92.7 ± 3.5 |  |
| COc1cc2c3cc1Oc1cc(ccc1O)C[C@@H]1c4c(cc(OC)c(O)c4Oc4ccc(cc4)C[C@@H]3N(C)CC2)CC[N+]1(C)C | 82.2 |  |
| Cc1ncc(CO)c(CO)c1O | 84.2 |  |
| Cc1ncc(CO)c(CO)c1O [Pyridoxine hydrochloride] | 103 |  |
| CN1CCc2cc(Cl)c(O)cc2[C@@H](c2ccccc2)C1 | 79.2 ± 8.7 |  |
| Nc1ccc(N2C(=O)c3ccccc3C2=O)c(Cl)c1 [N-(4-Amino-2-chlorophenyl)phthalimide] | 109 |  |
| C#C[C@]1(OC(C)=O)CC[C@H]2[C@@H]3CCC4=CC(=NO)CC[C@@H]4[C@H]3CC[C@@]21CC (mixture of isomers) [Norgestimate] | 83.5 |  |
| C#C[C@]1(OC(C)=O)CC[C@H]2[C@@H]3CCC4=CC(=NO)CC[C@@H]4[C@H]3CC[C@@]21CC (mixture of isomers) | 91.9 |  |
| COc1ccc2cc([C@H](C)CO)ccc2c1 | 89.6 |  |
| CC(=O)O[C@]1(C(C)=O)CC[C@H]2[C@@H]3C=C(Cl)C4=CC(=O)[C@@H]5C[C@@H]5[C@]4(C)[C@H]3CC[C@@]21C [Cyproterone Acetate] | 82.3 |  |
| CC(=O)O[C@]1(C(C)=O)CC[C@H]2[C@@H]3C=C(Cl)C4=CC(=O)[C@@H]5C[C@@H]5[C@]4(C)[C@H]3CC[C@@]21C | 71.1 |  |
| CC(=O)O[C@]1(C(C)=O)CC[C@H]2[C@@H]3C=C(Cl)C4=CC(=O)[C@@H]5C[C@@H]5[C@]4(C)[C@H]3CC[C@@]21C [Cyproterone acetate] | 118 ± 32 | 77.3 |

Source: the supplement of paper PMC3682954
